Article PMC2265536
These are yes or no findings as the source states them, for the method shown. In cells and extracts the contact can be indirect. Some binding calls cover weakened binding; strength is not graded here.

Protein sequences, listed by entry. Tags and fused reporters are not part of them.
UniProt Q9NDJ2: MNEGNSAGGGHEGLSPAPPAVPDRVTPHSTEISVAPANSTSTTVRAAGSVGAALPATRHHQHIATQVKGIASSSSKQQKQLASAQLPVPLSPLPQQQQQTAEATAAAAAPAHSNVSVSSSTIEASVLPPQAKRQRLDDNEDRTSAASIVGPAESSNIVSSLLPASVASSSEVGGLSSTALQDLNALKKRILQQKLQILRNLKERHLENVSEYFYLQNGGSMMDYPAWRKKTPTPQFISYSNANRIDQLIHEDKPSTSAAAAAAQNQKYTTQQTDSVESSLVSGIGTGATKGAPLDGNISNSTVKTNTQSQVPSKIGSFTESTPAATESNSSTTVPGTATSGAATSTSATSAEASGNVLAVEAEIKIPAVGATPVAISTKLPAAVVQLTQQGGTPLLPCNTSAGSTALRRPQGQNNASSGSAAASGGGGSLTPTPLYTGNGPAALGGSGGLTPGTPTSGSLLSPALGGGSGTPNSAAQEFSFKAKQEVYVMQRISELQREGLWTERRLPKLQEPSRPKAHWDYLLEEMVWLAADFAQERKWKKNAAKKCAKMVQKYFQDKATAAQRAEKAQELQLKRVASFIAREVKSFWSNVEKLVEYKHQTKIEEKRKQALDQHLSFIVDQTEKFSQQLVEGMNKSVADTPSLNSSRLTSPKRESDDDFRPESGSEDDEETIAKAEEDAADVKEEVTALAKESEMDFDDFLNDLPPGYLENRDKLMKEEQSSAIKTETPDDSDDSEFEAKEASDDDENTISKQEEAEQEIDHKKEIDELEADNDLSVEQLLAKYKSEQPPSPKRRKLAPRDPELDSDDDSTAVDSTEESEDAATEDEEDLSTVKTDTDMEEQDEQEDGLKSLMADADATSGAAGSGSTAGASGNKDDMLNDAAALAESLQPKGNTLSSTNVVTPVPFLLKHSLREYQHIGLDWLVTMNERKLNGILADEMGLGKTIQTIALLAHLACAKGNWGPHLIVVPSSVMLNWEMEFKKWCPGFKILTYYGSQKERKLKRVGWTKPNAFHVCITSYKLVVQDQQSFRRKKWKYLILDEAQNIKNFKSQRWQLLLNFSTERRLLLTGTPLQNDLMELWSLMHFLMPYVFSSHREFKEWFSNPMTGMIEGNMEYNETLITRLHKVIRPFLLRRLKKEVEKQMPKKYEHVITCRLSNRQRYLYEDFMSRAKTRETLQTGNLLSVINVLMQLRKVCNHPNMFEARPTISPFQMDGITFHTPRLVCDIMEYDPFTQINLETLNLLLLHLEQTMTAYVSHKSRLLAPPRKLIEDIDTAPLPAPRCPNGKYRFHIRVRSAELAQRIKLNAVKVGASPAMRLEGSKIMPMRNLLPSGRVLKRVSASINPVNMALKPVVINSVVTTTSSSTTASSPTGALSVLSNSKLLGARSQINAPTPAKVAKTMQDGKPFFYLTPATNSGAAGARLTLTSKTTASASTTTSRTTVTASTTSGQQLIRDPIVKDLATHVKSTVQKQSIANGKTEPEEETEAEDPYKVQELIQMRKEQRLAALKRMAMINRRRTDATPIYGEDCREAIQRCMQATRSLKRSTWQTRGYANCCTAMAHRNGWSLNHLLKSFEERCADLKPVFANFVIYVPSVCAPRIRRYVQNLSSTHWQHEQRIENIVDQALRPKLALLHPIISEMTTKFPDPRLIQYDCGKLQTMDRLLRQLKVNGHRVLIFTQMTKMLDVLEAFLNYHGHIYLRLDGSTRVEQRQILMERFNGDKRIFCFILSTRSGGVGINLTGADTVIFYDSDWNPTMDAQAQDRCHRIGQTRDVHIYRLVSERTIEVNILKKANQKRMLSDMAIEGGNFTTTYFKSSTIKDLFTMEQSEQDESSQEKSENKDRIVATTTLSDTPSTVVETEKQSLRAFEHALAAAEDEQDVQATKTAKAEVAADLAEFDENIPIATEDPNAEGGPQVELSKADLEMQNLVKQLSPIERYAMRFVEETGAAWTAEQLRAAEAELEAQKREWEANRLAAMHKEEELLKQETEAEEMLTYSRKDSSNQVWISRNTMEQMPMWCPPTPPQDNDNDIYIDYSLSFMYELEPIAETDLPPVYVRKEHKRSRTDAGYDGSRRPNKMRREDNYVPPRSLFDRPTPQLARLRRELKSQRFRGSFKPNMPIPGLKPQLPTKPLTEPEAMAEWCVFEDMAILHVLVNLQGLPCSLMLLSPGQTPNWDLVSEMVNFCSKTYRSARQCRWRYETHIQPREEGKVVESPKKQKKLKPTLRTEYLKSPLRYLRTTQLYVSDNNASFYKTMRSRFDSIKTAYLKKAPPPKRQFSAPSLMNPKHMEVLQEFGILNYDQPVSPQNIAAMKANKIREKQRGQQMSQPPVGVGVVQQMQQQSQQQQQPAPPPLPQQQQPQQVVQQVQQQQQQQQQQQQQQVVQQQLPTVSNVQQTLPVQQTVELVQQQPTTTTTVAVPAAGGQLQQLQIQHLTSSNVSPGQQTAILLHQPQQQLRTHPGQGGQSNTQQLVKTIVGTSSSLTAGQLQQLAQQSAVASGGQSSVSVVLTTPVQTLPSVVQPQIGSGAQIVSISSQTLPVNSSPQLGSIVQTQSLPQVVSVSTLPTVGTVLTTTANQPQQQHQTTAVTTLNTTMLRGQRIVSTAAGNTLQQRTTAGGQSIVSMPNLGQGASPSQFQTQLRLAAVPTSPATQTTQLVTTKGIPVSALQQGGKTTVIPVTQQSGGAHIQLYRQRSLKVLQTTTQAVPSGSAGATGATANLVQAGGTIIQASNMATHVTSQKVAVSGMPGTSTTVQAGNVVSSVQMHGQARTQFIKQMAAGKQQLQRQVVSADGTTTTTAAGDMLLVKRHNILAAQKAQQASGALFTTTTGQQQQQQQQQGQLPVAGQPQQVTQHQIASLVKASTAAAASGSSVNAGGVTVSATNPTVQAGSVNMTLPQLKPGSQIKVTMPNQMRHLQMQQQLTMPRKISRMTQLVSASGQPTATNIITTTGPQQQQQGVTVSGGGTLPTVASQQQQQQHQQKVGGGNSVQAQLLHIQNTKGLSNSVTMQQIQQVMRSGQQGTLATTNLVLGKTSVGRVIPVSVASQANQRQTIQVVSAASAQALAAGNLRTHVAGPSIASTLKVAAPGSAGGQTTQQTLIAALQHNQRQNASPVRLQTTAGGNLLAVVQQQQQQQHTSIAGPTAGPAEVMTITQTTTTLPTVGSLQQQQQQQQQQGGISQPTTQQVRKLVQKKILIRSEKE
UniProt Q24368: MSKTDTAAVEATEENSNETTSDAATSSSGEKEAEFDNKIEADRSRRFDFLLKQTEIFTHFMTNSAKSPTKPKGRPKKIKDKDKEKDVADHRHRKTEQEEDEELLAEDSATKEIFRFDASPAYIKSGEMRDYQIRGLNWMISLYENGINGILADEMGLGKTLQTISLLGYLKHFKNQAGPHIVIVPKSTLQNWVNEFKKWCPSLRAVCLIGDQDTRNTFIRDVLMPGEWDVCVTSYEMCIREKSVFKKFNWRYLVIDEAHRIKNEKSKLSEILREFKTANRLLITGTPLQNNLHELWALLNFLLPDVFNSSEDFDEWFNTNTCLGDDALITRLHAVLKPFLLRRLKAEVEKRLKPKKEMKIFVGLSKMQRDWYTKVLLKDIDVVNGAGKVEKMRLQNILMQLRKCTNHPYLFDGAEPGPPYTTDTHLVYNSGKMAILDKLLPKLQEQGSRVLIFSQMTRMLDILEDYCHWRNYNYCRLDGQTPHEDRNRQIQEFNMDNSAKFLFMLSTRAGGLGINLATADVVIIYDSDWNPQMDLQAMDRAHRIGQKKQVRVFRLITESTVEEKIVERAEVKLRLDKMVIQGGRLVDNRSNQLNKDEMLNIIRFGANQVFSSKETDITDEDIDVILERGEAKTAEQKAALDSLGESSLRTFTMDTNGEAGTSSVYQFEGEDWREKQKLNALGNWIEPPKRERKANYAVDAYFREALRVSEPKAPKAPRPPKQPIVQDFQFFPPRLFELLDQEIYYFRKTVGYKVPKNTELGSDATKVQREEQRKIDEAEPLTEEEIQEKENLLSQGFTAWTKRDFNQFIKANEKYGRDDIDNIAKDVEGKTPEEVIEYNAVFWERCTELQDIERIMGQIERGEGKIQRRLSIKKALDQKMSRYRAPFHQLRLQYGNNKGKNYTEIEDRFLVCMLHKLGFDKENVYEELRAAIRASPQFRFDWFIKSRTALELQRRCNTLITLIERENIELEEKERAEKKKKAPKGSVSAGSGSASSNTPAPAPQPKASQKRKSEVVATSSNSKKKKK

Target: Domino (D. melanogaster (endogenous in embryos)) (UniProt Q9NDJ2)
Test: co-IP; Drosophila embryonic nuclear extracts (about 200 ug protein); antibodies coupled to Protein-G Agarose; 20 mM Tris-HCl pH 7.9, 0.5 mM EDTA, 150 mM NaCl, 10% glycerol, 3 h at 4 C; washes with 0.01% NP-40; western blot; dRsf-1/ISWI also with 80 ug/ml ethidium bromide

ISWI (from UniProt Q24368 1-1027)
binding: binds
